Measured values: patent US20210171970A1 (CURATORS OF THE UNIVERSITY OF MISSOURI, published 2021)
Results are given in words; binding and its absence hold for the method and conditions named. For some assays here: In cells and extracts the contact can be indirect. Some entries that bind do so weakly or less than the wild type.

T1: BADC3 (Single hybrid motif protein, AT3G15690), Arabidopsis thaliana (Arabidopsis thaliana)
T1 sequence: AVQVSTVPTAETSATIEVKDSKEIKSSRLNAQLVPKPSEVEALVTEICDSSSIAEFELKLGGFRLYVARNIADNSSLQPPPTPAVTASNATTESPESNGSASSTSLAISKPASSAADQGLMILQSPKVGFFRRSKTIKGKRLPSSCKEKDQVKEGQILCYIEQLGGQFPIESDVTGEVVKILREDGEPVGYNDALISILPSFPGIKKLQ

T2: BADC2 (Single hybrid motif protein, AT1G52670), Arabidopsis thaliana (Arabidopsis thaliana)
T2 sequence: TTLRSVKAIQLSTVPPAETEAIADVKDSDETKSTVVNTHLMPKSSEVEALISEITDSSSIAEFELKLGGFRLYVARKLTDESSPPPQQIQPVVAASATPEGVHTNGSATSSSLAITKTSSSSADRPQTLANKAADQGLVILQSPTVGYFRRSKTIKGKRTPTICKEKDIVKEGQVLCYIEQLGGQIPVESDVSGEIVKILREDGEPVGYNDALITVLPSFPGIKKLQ

T3: biotin carboxylase (BC) subunit of hetACCase, AT5G35360, Arabidopsis thaliana (Arabidopsis thaliana) (UniProt O04983)
T3 sequence (looked up): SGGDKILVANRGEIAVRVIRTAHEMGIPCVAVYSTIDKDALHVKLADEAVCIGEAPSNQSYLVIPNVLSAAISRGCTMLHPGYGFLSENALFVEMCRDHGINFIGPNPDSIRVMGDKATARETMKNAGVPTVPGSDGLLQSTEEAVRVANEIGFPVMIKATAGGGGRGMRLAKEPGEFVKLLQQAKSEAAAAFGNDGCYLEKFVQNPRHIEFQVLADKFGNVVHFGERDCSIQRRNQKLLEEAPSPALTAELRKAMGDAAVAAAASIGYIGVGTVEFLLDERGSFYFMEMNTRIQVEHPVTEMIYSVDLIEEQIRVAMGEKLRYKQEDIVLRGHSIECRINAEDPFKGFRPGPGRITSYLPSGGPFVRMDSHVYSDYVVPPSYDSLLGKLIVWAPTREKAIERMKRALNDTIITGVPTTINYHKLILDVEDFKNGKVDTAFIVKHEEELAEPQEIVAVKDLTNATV


Legend:
[1] = biological target: T1, BADC3 (Single hybrid motif protein, AT3G15690), Arabidopsis thaliana (Arabidopsis thaliana); test: yeast two-hybrid, strain AH109
[2] = biological target: BADC1 (biotin/lipoyl attachment domain-containing protein, AT3G56130), Arabidopsis thaliana (Arabidopsis thaliana); test: intact mass analysis
[3] = biological target: T2, BADC2 (Single hybrid motif protein, AT1G52670), Arabidopsis thaliana (Arabidopsis thaliana); test: yeast two-hybrid, strain AH109
[4] = biological target: BADC1 (biotin/lipoyl attachment domain-containing protein, AT3G56130), Arabidopsis thaliana (Arabidopsis thaliana); test: intact mass analysis; non-reducing SDS-PAGE (monomer and dimer band, dimer lost with DTT)
[5] = biological target: T1, BADC3 (Single hybrid motif protein, AT3G15690), Arabidopsis thaliana (Arabidopsis thaliana); test: intact mass analysis
[6] = biological target: T3, biotin carboxylase (BC) subunit of hetACCase, AT5G35360, Arabidopsis thaliana (Arabidopsis thaliana); test: co-expression in E. coli, Ni-NTA co-purification
[7] = biological target: T1, BADC3 (Single hybrid motif protein, AT3G15690), Arabidopsis thaliana (Arabidopsis thaliana); test: intact mass analysis; non-reducing SDS-PAGE (monomer and dimer band, dimer lost with DTT)

binding [1] | binding [2] | binding [3] | binding [4] | binding [5] | binding [6] | binding [7] | Binder
binds | – | – | – | – | – | – | BADC2 (Single hybrid motif protein, AT1G52670), Arabidopsis thaliana (other, Native protein in chloroplast lysate for the co-IPs; Recombinant and two-hybrid constructs lack the TargetP-predicted transit peptide; His-tagged or untagged in co-expression; also called AtBADC2; NP_564612.1) TTLRSVKAIQLSTVPPAETEAIADVKDSDETKSTVVNTHLMPKSSEVEALISEITDSSSIAEFELKLGGFRLYVARKLTDESSPPPQQIQPVVAASATPEGVHTNGSATSSSLAITKTSSSSADRPQTLANKAADQGLVILQSPTVGYFRRSKTIKGKRTPTICKEKDIVKEGQVLCYIEQLGGQIPVESDVSGEIVKILREDGEPVGYNDALITVLPSFPGIKKLQ
binds | binds | binds | binds | – | – | – | BADC1 (biotin/lipoyl attachment domain-containing protein, AT3G56130), Arabidopsis thaliana (protein) AKAAKSSTTTISDGSSDASVSDGKKTVRRITFPKEVEALVHEMCDETEVAVLQLKVGDFEMNLKRKIGAATNPIPVADISPTVAPPIPSEPMNKSASSAPSPSQAKPSSEKVSPFKNTSYGKPAKLAALEASGSTNYVLVTSPAVGKFQRSRTVKGKKQSPSCKEGDAIKEGQVIGYLHQLGTELPVTSDVAGEVLKLLSDDGDSVGYGDPLVAVLPSFHDINIQ
– | – | – | – | binds | binds | binds | BADC3 (Single hybrid motif protein, AT3G15690), Arabidopsis thaliana (protein) AVQVSTVPTAETSATIEVKDSKEIKSSRLNAQLVPKPSEVEALVTEICDSSSIAEFELKLGGFRLYVARNIADNSSLQPPPTPAVTASNATTESPESNGSASSTSLAISKPASSAADQGLMILQSPKVGFFRRSKTIKGKRLPSSCKEKDQVKEGQILCYIEQLGGQFPIESDVTGEVVKILREDGEPVGYNDALISILPSFPGIKKLQ
